Measurements reported in PubChem BioAssay AID743454 (Peter MacCallum Cancer Centre, 2014).
In all, the deposit lists about 18,000 reagents; shown is a part drawn at random. Of all reagents, 450 (2.5%) got an active call. 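Single biological run; no consistent viability z cut-off exists, so the class columns, not z-scores, define the calls.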

Screen: 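Knock-downs lowering viability or raising caspase 3/7 activity in vorinostat-treated resistant cells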 (primary screen)
System: human HCT116-VR colon cancer cells, selected for vorinostat resistance
Reagents: siRNA pool against human genes, 40 nM siRNA pool
Duration: vorinostat for 24 h, read-out about 72 h after transfection
Conditions: vorinostat at 2.5 µM final
Measured: 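Two measures, CellTiter-Fluor viability and luminescent caspase 3/7 activity, each as fold change against same-plate mock wells, mean of duplicates, then screen-wide robust z-score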
Reading the numbers: viability robust z-score: higher = more viable cells than screen typical; caspase robust z-score: higher = more caspase 3/7 activity than screen typical
Rule for the call: 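a knock-down is a hit when classed RV1 or RV2 for lowered viability, or CA1 or CA2 for caspase activation; those lethal without drug were dropped; hits were retested singly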

Against C3orf38 (GeneID 285237), the values are viability hit class no change; caspase hit class no change; viability robust z-score 0.24; caspase robust z-score 0.56; inactive.
For MPC2 (GeneID 25874), the entry reads viability hit class no change; caspase hit class no change; viability robust z-score -0.38; caspase robust z-score 0.08; inactive.
KLRC1 (GeneID 3821) showed viability hit class no change; caspase hit class no change; viability robust z-score 0.3; caspase robust z-score -1.15; inactive.
With knock-down of SLC27A5 (GeneID 10998) the results were viability hit class no change; caspase hit class no change; viability robust z-score 0.12; caspase robust z-score 0.27; inactive.
After knock-down of CCDC88A (GeneID 55704), the record shows viability hit class RV2 (reduced viability); caspase hit class no change; viability robust z-score -3.28; caspase robust z-score 0.2; active.
HYPK (GeneID 25764) scored viability hit class no change; caspase hit class no change; viability robust z-score 1.75; caspase robust z-score -1.49; inactive.
ZCCHC2 (GeneID 54877) showed viability hit class no change; caspase hit class no change; viability robust z-score 0.12; caspase robust z-score -0.32; inactive.
Depletion of MKRN1 (GeneID 23608) gave: viability hit class no change; caspase hit class no change; viability robust z-score 0.73; caspase robust z-score -0.52; inactive.

Reprinted from the listing, 2 entries:
C3orf38 (GeneID 285237) → viability hit class: no change; caspase hit class: no change; viability robust z-score: 0.24; caspase robust z-score: 0.56; call: inactive
MPC2 (GeneID 25874) → viability hit class: no change; caspase hit class: no change; viability robust z-score: -0.38; caspase robust z-score: 0.08; call: inactive

The list goes on.
Against TIGAR (GeneID 57103) the deposit lists viability hit class no change; caspase hit class no change; viability robust z-score 1.71; caspase robust z-score -0.73; inactive.
Silencing of TCAF1 (GeneID 9747) came out at: viability hit class no change; caspase hit class no change; viability robust z-score -0.15; caspase robust z-score 4.71; inactive.
UCN3 (GeneID 114131) showed viability hit class no change; caspase hit class no change; viability robust z-score 2.8; caspase robust z-score -0.14; inactive.
Silencing of COX4I2 (GeneID 84701) gave: viability hit class no change; caspase hit class no change; viability robust z-score -0.52; caspase robust z-score 3.96; inactive.
